Laboratory results published in PMC5797244.
These are yes or no findings as the source states them, for the method shown. In cells and extracts the contact can be indirect. Some results given as binding are weak or reduced against the parent protein; the word gives no strength.

Amino acid sequences for entries named in this document (tags omitted).
UniProt Q4ACU6: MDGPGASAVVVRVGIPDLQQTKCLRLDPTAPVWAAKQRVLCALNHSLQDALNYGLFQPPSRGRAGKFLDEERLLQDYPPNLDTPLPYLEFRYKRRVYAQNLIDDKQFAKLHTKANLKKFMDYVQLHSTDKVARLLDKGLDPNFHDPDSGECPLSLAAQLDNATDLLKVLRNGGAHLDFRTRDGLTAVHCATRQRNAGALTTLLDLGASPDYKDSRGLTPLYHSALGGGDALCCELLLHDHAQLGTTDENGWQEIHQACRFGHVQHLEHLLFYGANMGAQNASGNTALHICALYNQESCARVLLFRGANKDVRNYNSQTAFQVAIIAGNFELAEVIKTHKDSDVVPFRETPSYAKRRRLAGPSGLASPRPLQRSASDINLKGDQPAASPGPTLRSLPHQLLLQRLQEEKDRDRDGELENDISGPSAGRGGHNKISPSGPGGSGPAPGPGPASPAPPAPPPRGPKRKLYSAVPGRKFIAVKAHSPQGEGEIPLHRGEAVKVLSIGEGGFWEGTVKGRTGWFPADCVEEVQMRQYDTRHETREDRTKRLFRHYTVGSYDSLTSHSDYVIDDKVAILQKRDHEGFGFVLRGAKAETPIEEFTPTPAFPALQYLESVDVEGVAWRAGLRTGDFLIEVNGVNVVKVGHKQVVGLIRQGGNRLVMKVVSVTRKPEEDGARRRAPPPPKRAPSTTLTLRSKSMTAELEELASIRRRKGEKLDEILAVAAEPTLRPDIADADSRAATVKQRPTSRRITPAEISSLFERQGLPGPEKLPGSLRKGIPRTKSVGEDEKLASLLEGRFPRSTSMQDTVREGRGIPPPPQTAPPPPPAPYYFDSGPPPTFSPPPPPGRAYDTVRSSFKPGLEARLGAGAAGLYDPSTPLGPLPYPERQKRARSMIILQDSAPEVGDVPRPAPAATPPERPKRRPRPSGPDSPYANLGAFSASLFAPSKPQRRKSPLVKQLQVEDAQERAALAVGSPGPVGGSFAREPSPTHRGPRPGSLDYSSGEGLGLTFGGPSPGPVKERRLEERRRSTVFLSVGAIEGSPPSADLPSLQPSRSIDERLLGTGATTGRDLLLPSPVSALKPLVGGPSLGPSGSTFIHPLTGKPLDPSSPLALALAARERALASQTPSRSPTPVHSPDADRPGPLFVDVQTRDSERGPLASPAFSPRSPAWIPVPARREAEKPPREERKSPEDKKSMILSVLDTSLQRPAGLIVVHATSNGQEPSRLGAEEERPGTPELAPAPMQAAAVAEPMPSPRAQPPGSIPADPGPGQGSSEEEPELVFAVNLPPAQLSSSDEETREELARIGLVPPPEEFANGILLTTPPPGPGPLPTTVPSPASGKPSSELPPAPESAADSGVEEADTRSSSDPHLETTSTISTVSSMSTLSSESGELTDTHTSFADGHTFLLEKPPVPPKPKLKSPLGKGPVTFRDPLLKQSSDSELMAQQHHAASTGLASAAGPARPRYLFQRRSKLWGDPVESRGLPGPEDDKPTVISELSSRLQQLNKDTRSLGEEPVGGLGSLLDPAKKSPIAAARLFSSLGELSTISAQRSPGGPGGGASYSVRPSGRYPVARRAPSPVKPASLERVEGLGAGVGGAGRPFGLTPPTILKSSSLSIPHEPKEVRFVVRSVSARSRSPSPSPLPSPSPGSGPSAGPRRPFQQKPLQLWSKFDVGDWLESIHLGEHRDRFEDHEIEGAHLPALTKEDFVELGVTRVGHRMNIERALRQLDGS

Target: SHANK3 (mouse (endogenous in adult mouse cortex)) (UniProt Q4ACU6)
Assay: co-IP; SHANK3 immunoprecipitated from WT and Dlgap1 KO adult mouse cortex; Western blots for Dlg4 and Homer1; triplicate assays

binding: binds
B1: Homer1 (protein, UniProt Q9Z2Y3 1-366)
chain: MGEQPIFSTRAHVFQIDPNTKKNWVPTSKHAVTVSYFYDSTRNVYRIISLDGSKAIINSTITPNMTFTKTSQKFGQWADSRANTVYGLGFSSEHHLSKFAEKFQEFKEAARLAKEKSQEKMELTSTPSQESAGGDLQSPLTPESINGTDDERTPDVTQNSEPRAEPTQNALPFPHSAGDRTQALSHASSAISKHWEAELATLKGNNAKLTAALLESTANVKQWKQQLAAYQEEAERLHKRVTELECVSSQANAVHSHKTELNQTVQELEETLKVKEEEIERLKQEIDNARELQEQRDSLTQKLQEVEIRNKDLEGQLSDLEQRLEKSQNEQEAFRSNLKTLLEILDGKIFELTELRDNLAKLLECS
